Assay results from PMC5577505.
These are yes or no findings as the source states them, for the method shown. In cells and extracts the contact can be indirect. A yes stands for co-enrichment or nearness to the bait. Other partners may have been found.

Sequences of proteins named here, by UniProt entry; tags and fusion partners are left off.
UniProt O00571: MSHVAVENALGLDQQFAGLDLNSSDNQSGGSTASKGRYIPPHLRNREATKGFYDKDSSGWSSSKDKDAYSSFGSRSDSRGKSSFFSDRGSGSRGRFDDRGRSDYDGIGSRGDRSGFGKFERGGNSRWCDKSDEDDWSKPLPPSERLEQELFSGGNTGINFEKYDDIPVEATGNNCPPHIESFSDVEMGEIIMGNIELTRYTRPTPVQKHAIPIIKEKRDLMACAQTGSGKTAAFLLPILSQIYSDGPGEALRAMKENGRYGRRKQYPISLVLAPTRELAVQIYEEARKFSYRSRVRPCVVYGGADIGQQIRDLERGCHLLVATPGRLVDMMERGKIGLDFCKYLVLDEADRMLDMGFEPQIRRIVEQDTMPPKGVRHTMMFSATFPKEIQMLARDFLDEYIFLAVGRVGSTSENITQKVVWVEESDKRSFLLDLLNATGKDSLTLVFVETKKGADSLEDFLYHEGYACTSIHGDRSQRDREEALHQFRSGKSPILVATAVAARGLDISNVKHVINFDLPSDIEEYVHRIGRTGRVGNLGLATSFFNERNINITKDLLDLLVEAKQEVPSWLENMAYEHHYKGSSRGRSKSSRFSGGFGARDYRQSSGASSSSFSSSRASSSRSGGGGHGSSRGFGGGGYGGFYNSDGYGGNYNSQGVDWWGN
UniProt P11940: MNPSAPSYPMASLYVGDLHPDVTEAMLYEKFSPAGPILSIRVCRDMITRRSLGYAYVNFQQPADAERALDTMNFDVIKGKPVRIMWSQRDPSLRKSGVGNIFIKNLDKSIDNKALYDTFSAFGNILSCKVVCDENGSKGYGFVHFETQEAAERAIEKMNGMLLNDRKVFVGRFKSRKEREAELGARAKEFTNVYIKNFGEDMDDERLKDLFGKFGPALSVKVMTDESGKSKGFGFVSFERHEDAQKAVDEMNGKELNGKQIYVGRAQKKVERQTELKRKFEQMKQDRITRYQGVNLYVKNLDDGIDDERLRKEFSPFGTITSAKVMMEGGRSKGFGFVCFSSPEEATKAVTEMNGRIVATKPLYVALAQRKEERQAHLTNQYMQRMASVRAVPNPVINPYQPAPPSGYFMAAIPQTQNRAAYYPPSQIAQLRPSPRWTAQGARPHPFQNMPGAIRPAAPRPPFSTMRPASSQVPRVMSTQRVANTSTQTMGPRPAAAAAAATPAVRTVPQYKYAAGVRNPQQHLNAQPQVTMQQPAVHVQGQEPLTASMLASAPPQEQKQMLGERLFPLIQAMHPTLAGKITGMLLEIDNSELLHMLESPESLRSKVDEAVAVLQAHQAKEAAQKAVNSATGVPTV

Target: HA-tagged DDX3X (UniProt O00571)
Test: affinity purification with mass spectrometry; HA-DDX3X precipitated with anti-HA-Agarose from extracts (500 µg protein) of spreading MRC5 cells, 2 h at 4°C; resin-only control; trypsin digest, dimethyl labelling, LC-MS; enriched two-fold or more

In the case of “poly(A)-binding protein 1 (from UniProt P11940 1-636)”, the binding is reported as “binds”.
